Measurements published in publication PMC7311514.
Results are given in words; binding and its absence hold for the method and conditions named. Binding seen in cells or lysates may run through a third protein. Some entries that bind do so weakly or less than the wild type. Each block holds one molecule with its values, some of them ahead of it.

Chains of the proteins cited; added tags and fusions are not shown. Residues count along the entry.
UniProt P35968, residues 20-1356: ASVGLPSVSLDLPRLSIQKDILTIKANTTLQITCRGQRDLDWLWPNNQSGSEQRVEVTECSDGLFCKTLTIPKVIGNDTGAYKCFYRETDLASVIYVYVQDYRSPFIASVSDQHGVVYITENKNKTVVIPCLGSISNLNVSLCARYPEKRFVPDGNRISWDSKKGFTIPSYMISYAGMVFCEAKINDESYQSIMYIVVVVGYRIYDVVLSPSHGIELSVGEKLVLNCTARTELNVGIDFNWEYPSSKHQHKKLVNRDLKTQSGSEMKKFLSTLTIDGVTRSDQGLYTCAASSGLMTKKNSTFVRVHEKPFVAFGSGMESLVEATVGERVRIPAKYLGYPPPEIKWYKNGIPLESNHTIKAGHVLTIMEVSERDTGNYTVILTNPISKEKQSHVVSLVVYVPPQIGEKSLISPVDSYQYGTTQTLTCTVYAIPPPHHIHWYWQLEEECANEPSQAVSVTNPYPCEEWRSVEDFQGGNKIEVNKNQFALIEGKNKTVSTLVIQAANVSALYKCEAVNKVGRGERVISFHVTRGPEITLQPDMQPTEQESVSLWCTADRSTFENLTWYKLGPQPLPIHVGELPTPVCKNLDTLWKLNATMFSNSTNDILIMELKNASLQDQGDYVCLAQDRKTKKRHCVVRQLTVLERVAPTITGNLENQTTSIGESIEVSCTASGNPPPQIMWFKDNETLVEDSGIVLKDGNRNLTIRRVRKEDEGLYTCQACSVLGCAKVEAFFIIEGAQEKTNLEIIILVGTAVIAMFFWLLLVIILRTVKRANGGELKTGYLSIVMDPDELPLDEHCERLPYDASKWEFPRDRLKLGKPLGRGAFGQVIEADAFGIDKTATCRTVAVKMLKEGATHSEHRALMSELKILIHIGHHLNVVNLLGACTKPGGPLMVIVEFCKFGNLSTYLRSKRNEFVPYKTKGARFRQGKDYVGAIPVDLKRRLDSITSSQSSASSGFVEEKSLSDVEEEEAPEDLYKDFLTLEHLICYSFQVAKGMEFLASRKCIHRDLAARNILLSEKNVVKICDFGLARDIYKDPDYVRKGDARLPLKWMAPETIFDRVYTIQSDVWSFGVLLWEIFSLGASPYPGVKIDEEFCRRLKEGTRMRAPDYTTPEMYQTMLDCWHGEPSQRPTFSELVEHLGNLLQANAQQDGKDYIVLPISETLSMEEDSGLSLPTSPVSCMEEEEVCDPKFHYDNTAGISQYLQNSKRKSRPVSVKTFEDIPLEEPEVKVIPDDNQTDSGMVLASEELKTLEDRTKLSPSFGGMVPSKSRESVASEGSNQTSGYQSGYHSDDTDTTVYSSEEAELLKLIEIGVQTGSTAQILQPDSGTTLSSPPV
UniProt O14786, residues 22-923: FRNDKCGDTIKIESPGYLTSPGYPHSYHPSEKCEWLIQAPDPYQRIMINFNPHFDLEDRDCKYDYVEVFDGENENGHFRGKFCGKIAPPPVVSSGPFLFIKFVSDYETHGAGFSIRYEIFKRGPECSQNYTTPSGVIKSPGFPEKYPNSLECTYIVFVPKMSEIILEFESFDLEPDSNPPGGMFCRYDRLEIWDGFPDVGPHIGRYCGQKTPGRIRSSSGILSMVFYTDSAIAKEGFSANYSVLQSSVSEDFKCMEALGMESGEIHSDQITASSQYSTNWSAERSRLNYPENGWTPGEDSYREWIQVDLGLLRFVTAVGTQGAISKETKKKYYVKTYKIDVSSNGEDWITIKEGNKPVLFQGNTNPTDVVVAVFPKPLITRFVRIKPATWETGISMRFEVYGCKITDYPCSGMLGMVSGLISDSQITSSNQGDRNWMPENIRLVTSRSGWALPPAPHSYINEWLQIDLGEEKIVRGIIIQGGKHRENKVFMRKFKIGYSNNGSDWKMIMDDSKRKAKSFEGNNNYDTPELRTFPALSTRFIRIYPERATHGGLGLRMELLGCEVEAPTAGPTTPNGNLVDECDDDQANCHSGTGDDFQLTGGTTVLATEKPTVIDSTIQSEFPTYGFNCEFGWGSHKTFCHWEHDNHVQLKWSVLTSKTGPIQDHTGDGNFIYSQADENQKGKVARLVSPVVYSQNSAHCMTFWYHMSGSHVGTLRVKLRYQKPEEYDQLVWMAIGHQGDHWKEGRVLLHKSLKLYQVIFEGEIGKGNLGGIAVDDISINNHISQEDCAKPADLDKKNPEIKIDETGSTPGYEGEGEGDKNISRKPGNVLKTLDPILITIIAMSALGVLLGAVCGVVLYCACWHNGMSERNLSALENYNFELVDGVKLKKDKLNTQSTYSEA

How the values were obtained:
[1] = target: T1, raftlin (endogenous, HUVEC) (human (endogenous in HUVEC)) (UniProt Q14699); assay: co-IP; HUVEC serum-starved 1 h, stimulated with 40 ng/ml VEGF (VEGF165) for the indicated times, with or without 5 μM SU5416 pre-incubation for 1 h; lysis in 20 mM Tris pH7.5, 137 mM NaCl, 0.5% NP-40, 1 mM EDTA; immunoprecipitation of endogenous raftlin, Nrp1 or VEGFR2 with Protein G beads at 4 °C; western blot
T1 sequence: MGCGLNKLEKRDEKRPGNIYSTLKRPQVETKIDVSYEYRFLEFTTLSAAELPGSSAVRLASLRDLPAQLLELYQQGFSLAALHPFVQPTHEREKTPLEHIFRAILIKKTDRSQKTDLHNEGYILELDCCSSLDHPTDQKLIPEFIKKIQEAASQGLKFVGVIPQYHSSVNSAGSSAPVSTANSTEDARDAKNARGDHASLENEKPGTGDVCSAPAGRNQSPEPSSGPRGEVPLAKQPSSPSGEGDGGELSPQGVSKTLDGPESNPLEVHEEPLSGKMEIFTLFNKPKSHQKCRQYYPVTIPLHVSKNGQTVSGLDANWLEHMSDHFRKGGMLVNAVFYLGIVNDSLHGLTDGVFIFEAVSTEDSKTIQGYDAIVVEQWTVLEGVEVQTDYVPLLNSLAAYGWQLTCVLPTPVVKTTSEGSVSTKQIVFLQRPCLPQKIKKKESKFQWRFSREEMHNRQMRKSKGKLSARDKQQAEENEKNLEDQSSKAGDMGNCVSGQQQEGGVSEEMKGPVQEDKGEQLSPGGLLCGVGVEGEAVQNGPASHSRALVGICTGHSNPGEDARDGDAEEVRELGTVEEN

[2] = target: VEGFR2 (endogenous, HUVEC; mature receptor) (human (endogenous in HUVEC)) (UniProt P35968); assay: as above

binding [1]: no binding
Molecule: immature VEGFR2 (lower molecular weight receptor, endogenous, HUVEC) (from UniProt P35968 20-1356)

binding [1]: binds
Molecule: neuropilin-1 (endogenous, HUVEC) (from UniProt O14786 22-923) (receptor)

binding [2]: no binding
B1: raftlin-2 (endogenous, HUVEC) (protein, UniProt Q52LD8 1-501)
chain: MGCGLRKLEDPDDSSPGKIFSTLKRPQVETKTEFAYEYVLLDFTLQASSNPEVIKINSILDIVTKVENYYLKGYIVGAIHPVIQPVGQRKHLPASYLYRVVLLRLKLSPKNSAAPSGQRRPRLVIEECPLTSEAQTNDAAKELIEKINVAAKRGMKFVGFISQHYSPSKFCNGTNHDGDIESMLHVRHGSDENCRSWNEGTLSGQSSESGIEEELHHESGQYQMEQNGSPTSSKSRKGEASDNKLYTVFNAFDDDSTSWAYQEGILSMKVTRKGSVISTLDADWLELTTFYYKQGLSLIDSFVFWETSKGEHLPKSLEGFFIYEEEGSGVPGSSRKGNDAIVVEQWTVIEGCEIKTDYGPLLHTLAEFGWLLTSVLPTPVLRHDSEGNLATKQIVFLQRPVMWNSAAQTPDKKASRHIKGEDKNKATSRSIGLDTTSSQPAESRHLPEECRLSPSRECWTKEGRLAQHNSFSGFSSSDNVLRELDDGQFDQEDGVTQVTCM
